# Source: PubChem BioAssay AID256 (DTP/NCI, 2004)
# The list is a part of this screen's results and no random one: it is rich in T/C values a quarter to a half above the control, in often repeated tests (any T/C) and in doses without a T/C. Further doses and runs are listed elsewhere. T/C gives the treated animals as a percentage of the vehicle group. Where survival is the endpoint, the PubChem record calls one and a half times the control and up active, and a quarter to a half above the control has no call in these data; cut-offs in other NCI protocols can differ. Schedules are NCI's codes, taken here to give the interval after Q, in days (D) or hours (H), and the number of doses after X. Some T/C values are followed by the survivors on the day toxicity was checked, most often the fifth; without a count, all were alive then. Some entries hold several experiments; the values are given in rising order. Signs of the kind (2×) say how often a value occurs here.
# System: CD2F1 mice, L1210 leukemia ip, survival T/C
# Test: NCI In Vivo Anticancer Drug Screen. Data for tumor model L1210 Leukemia (intraperitoneal) in CD2F1 (CDF1) mice
# Details: T/C endpoint: mean survival time, higher T/C = longer survival
# Method in brief: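 Compound-dosed mice with transplantable tumor versus matched vehicle controls; endpoint ratio T/C reported.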
smiles,measurement,setting,value
S=c1nc[nH]c2nc[nH]c12,T/C,"dose: 2.0 mg/kg/injection, schedule: Q03HX024 (ip), vehicle: alkali diluted with water",133 % of control
same,T/C,"dose: 4.0 mg/kg/injection, schedule: Q01DX005 (ip), vehicle: alkali diluted with water",125 % of control
same,T/C,"dose: 4.0 mg/kg/injection, schedule: Q03HX024 (ip), vehicle: alkali diluted with water",143 % of control
same,T/C,"dose: 18.8 mg/kg/injection, schedule: Q01DX009 (ip), vehicle: alkali diluted with saline",127 % of control
same,T/C,"dose: 20.0 mg/kg/injection, schedule: Q01DX005 (ip), vehicle: alkali diluted with saline, evaluated on day 30","107, 113, 114, 115, 122 % of control"
same,T/C,"dose: 20.0 mg/kg/injection, schedule: Q01DX005 (ip), vehicle: alkali diluted with saline, evaluated on day 45",115 % of control
same,T/C,"dose: 20.0 mg/kg/injection, schedule: Q01DX005 (ip), vehicle: alkali diluted with water, evaluated on day 30, list 1 of 2","101, 102 (2×), 103, 104, 105 (2×), 106 (3×), 107, 108 (3×), 109, 110 (2×), 111 (2×), 112, 113 (2×), 114 (2×), 115, 116 (2×), 117 (4×), 118, 119, 120, 120 [5 of 6 alive], 121, 123, 130, 147, 174 % of control"
same,T/C,"dose: 20.0 mg/kg/injection, schedule: Q01DX005 (ip), vehicle: alkali diluted with water, evaluated on day 30, list 2 of 2","101 (2×), 102 (2×), 103, 105 (3×), 106 (2×), 107, 108 (2×), 108 [5 of 6 alive], 109, 110 (2×), 111 (3×), 113 (3×), 114 (2×), 115, 116, 117 (5×), 119 (2×), 120, 121, 122, 123, 139, 164 % of control"
same,T/C,"dose: 20.0 mg/kg/injection, schedule: Q01DX005 (ip), vehicle: alkali diluted with water, evaluated on day 45",108 % of control
same,T/C,"dose: 20.0 mg/kg/injection, schedule: Q01DX005 (ip), vehicle: other, evaluated on day 30, list 1 of 2","89, 100, 104 (2×), 105 (2×), 106 (2×), 107, 108, 109 (3×), 110 (2×), 111 (3×), 112 (2×), 113, 114, 115 (2×), 117 (3×), 119 (2×), 120, 122, 124, 129, 134 % of control"
same,T/C,"dose: 20.0 mg/kg/injection, schedule: Q01DX005 (ip), vehicle: other, evaluated on day 30, list 2 of 2","95, 103, 104 (2×), 105, 106 (2×), 107, 108, 109 (3×), 110 (2×), 111 (3×), 112 (3×), 113 (2×), 114, 115 (2×), 117 (2×), 119 (2×), 120, 121, 123, 125, 130, 134 % of control"
same,T/C,"dose: 20.0 mg/kg/injection, schedule: Q01DX005 (ip), vehicle: other, evaluated on day 35",105 % of control
same,T/C,"dose: 20.0 mg/kg/injection, schedule: Q01DX005 (ip), vehicle: other, evaluated on day 45",109 % of control
same,T/C,"dose: 20.0 mg/kg/injection, schedule: Q01DX005 (ip), vehicle: saline with Tween-80",125 % of control [5 of 6 alive]
same,T/C,"dose: 20.0 mg/kg/injection, schedule: Q01DX005 (ip), vehicle: saline",130 and 144 % of control
same,T/C,"dose: 20.0 mg/kg/injection, schedule: Q01DX009 (ip), vehicle: alkali diluted with saline",129 % of control
same,T/C,"dose: 20.0 mg/kg/injection, schedule: Q01DX009 (ip), vehicle: other",131 % of control [5 of 6 alive]
same,T/C,"dose: 37.5 mg/kg/injection, schedule: Q01DX009 (ip), vehicle: alkali diluted with saline",139 % of control
same,T/C,"dose: 40.0 mg/kg/injection, schedule: Q01DX005 (ip), vehicle: alkali diluted with saline, evaluated on day 30","107, 122, 128, 136, 138 % of control"
same,T/C,"dose: 40.0 mg/kg/injection, schedule: Q01DX005 (ip), vehicle: alkali diluted with saline, evaluated on day 45",134 % of control
same,T/C,"dose: 40.0 mg/kg/injection, schedule: Q01DX005 (ip), vehicle: alkali diluted with water, evaluated on day 30, list 1 of 2","105, 110, 111, 112, 113, 114, 115 (3×), 116, 118 (3×), 119, 120 (2×), 121, 122, 123 (3×), 124, 125, 126, 127 (2×), 128, 128 [5 of 6 alive], 129 [5 of 6 alive], 131, 132 (2×), 133 [5 of 6 alive], 135, 139, 141, 148, 162, 170, 181 % of control"
same,T/C,"dose: 40.0 mg/kg/injection, schedule: Q01DX005 (ip), vehicle: alkali diluted with water, evaluated on day 30, list 2 of 2","102 [5 of 6 alive], 106, 111 (2×), 112, 113 (2×), 114, 115 (2×), 116 (2×), 118 (2×), 119 (2×), 120, 121, 122 (2×), 123 (2×), 124, 125, 126, 127 (3×), 128, 129 [2 of 3 alive], 130, 132 (2×), 133 (2×), 137, 139 [5 of 6 alive], 143, 159, 168, 178 % of control"
same,T/C,"dose: 40.0 mg/kg/injection, schedule: Q01DX005 (ip), vehicle: alkali diluted with water, evaluated on day 45",119 % of control
same,T/C,"dose: 40.0 mg/kg/injection, schedule: Q01DX005 (ip), vehicle: other, evaluated on day 30, list 1 of 2","108, 110 [5 of 6 alive], 111, 112, 113 (2×), 114, 115 (2×), 118 (2×), 119 (2×), 120 (2×), 121 (2×), 122 (2×), 123, 124, 126, 127 (3×), 130, 131, 132, 136, 140, 142, 147, 150, 160 % of control"
same,T/C,"dose: 40.0 mg/kg/injection, schedule: Q01DX005 (ip), vehicle: other, evaluated on day 30, list 2 of 2","107, 109, 111, 112 (2×), 113 (2×), 114 (2×), 115, 117, 118, 119 (2×), 120 (3×), 121, 122 (2×), 123, 124, 125 [5 of 6 alive], 126, 127 (2×), 128, 131, 132 (2×), 136, 142, 144, 147, 153 % of control"
same,T/C,"dose: 40.0 mg/kg/injection, schedule: Q01DX005 (ip), vehicle: other, evaluated on day 35",115 % of control
same,T/C,"dose: 40.0 mg/kg/injection, schedule: Q01DX005 (ip), vehicle: other, evaluated on day 45",143 % of control
same,T/C,"dose: 40.0 mg/kg/injection, schedule: Q01DX005 (ip), vehicle: saline with Tween-80",141 % of control
same,T/C,"dose: 40.0 mg/kg/injection, schedule: Q01DX005 (ip), vehicle: saline",128 % of control
same,T/C,"dose: 40.0 mg/kg/injection, schedule: Q01DX007 (ip), vehicle: saline",128 % of control
same,T/C,"dose: 40.0 mg/kg/injection, schedule: Q01DX009 (ip), vehicle: alkali diluted with saline",130 % of control [5 of 6 alive]
same,T/C,"dose: 40.0 mg/kg/injection, schedule: Q01DX009 (ip), vehicle: alkali diluted with water",127 and 129 % of control
same,T/C,"dose: 40.0 mg/kg/injection, schedule: Q01DX009 (ip), vehicle: saline",130 % of control
same,T/C,"dose: 40.0 mg/kg/injection, schedule: Q04DX002 (ip), vehicle: saline",129 % of control
same,T/C,"dose: 44.0 mg/kg/injection, schedule: Q04DX003 (ip), vehicle: saline",147 % of control
